Results taken from EP0748792A1 (priority 1994, dated 1995).

System: total acetylating capability of the organism
Experiment: Acetylating capability of white rats (sodium sulfacyl acetylation, arylamine content in urine)
Assay type: in vivo
Conditions: agent 20 mg/kg i.p. 4 days
Procedure: It is known that intact animals, receiving sufficient doses of pantothenic acid, have accelerated reactions of arylamine biotransformation. Therefore, there is the possibility to regulate the acetylating processes in the bodies of people and animals. In the examples given below the total acetylating capability of the organism was assessed using the method of quantitative determination of the arylamine content in the urine examined.
As a subject for acetylating, aromatic amines were chosen, as their usage makes it possible to assess both the activity of N-acetylamine transferase and (indirectly) the content of acetyl CoA.
As a subject for examination sodium sulfacyl was chosen. […] 14 animals were included in each group. The examined agent was injected intraperitoneally at a dose of 20 mg/kg. On the 4th day, 4 hours after the last injection of the examined agent, the sodium sulfacyl solution in a dose of 20 mg/kg was injected intraperitoneally. All the rats were separated into exchangeable cages for urine gathering. The collected data were compared with the control groups of animals (group I - only sodium sulfacyl in a dose of 20 mg/kg, and group II - calcium pantothenate).

Row | Compound | volume of excreted urine in comparison with the control group I
1 | calcium ketopantothenate [Ca ketopantothenate] | did not change
2 | CC(C)(CO)[C@@H](O)C(=O)NCCC(=O)O [Ca D-pantothenate, calcium D-pantothenate, reference compound] | did not change
